# Primary screen of a compound library

Measurements from “University of Dundee, Small-Polar-MMV Screening Library” (2021), ChEMBL document CHEMBL3988442.

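Whole-cell assay for inhibitors of Mycobacterium tuberculosis growth, labelled Cornell in the record; the read-out is not stated. The concentration is filed as 10 mM, unlikely as a test dose, so the dose is not known. Higher means stronger inhibition (inferred from two other growth screens of the library). Size under these conditions: about 53,000 compounds, about 900 of them at 50% or above in at least one test.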

Each number is a percent effect as filed. How 0% and 100% were set is not recorded. Most values in the screen are low, and negative values occur. The compounds are a random part of those screened.

| compound | percent effect |
|---|---|
| `CCS(=O)(=O)N1CCc2ncnc(OC)c2CC1` | 21.79 |
| `CC(C)Cc1nc(CS(C)(=O)=O)n(-c2ccccn2)n1` | 14.83 |
| `CC1CN(C(=O)c2ccc(=O)n(C)c2)c2ccccc2NC1=O` (configuration not stated) | 16.84 |
| `Cc1nc(N2CCCC2)nc2c1CN(C(=O)N(C)C)CC2` | 14.02 |
| `CCOc1cccc(CNc2ccccc2Cl)c1O` | 23.29 |
| `O=C(O)[C@@H]1CN(CC(=O)N2CCCCC2)C[C@H]1c1ccc(F)cc1` | -28.24 |
| `O=C(O)C(F)(F)F.O=C(O)C(F)(F)F.[H][C@]12CCN(c3ncc(F)cn3)[C@@]1([H])CC[C@@H](COCc1ccccn1)O2` | 30.47 |
| `COCCN1CCCC2(CCC(=O)N2Cc2cccnc2)C1.O=C(O)C(F)(F)F` (configuration not stated) | -23.55 |
| `CCCc1cc(C(=O)N(C)Cc2cnc3ccccc3n2)n(C)n1` | -21.14 |
| `CCOC(=O)CNC(=O)NCc1cccn1Cc1ccccc1F` | 2.821 |
| `NC(=O)c1cc2c(nc1-c1ccoc1)CCC2` | -7.339 |
| `FC(F)(F)c1ccnc(N2CCC(c3nccn3CC3CC3)CC2)n1` | 18.87 |
| `O=C(NCCOc1ccc(Cl)cn1)Nc1ccccn1` | -8.321 |
| `CNC(=O)C1(CCCc2cccnc2)CCCCN1` (configuration not stated) | 10.22 |
| `CCC(C(=O)N(C)C)N1CCC(c2nccn2Cc2cscn2)CC1` (configuration not stated) | -8.259 |
| `Cc1ccccc1CN1CCCN(C2CCOC2=O)CC1` (configuration not stated) | -7.202 |
| `CC(C(=O)NCCN1CCN(C)CC1)n1cncn1` (configuration not stated) | -16.37 |
| `CN(Cc1ccccc1)CC(O)Cn1cnc2ccsc2c1=O` (configuration not stated) | 2.273 |
| `Cc1nc(C)n(CC2CCCN2CC(=O)Nc2ccnn2C(C)C)n1` (configuration not stated) | -10.59 |
| `Cc1cc(C(=O)NCCc2nc3c(s2)CCCC3)n(C)n1` | 13.57 |
| `CC[C@H](Cn1ncc2ccccc2c1=O)NC(=O)c1ccccn1` | 0.088 |
| `N#Cc1cccnc1N1CCC(c2nc(C(F)(F)F)c[nH]2)CC1` | -2.452 |
| `COc1ccc(O[C@H]2COCCN(C(=O)c3ccno3)C2)cc1` | 17.15 |
| `O=C(c1cc(F)ccc1O)N1CCN(C2CCSC2)CC1` (configuration not stated) | 4.529 |
| `CCc1cnc(CN(C)C2CCN(CCc3cccs3)C2)o1` (configuration not stated) | 23.39 |
| `CN(Cc1nc(-c2ccccc2)no1)C(=O)CNS(C)(=O)=O` | 15.21 |
| `CN1CCOC(C(=O)Nc2nc(-c3ccc(Cl)cc3)n[nH]2)C1` (configuration not stated) | -29 |
| `Cc1noc([C@@H](C)NCc2ccc(F)cc2)c1C(=O)O.Cl` | -15.97 |
| `CC(C)Cc1nc(OCC(N)=O)c(C#N)c2c1CCCC2` | 14.78 |
| `COCCn1ccnc1CN1CCc2[nH]cnc2C1c1ccccn1` (configuration not stated) | 38.24 |
| `c1cnn(Cc2ccc(CN3CCC4(CCCNC4)C3)cc2)c1` (configuration not stated) | -1.71 |
| `Cc1nc(O)c2nnn(C[C@H]3CCCN3C(=O)c3ccc(F)cc3)c2n1` | 14.72 |
| `COCc1nc(C(=O)N2CCCC2c2cccc(C)c2)cs1` (configuration not stated) | 5.185 |
| `COCCC1(C(=O)O)CCCN(C(=O)c2cc(F)ccc2OC)C1` (configuration not stated) | -27.42 |
| `Cc1cnn(CC(C)NCc2cc(=O)n3cc(C)ccc3n2)c1` (configuration not stated) | 26.35 |
| `Cc1cc(F)cc(S(=O)(=O)NCCCN2CCC(O)CC2)c1` | -29.18 |
| `O=C(O)C(F)(F)F.[H][C@@]12C[C@@H](c3nc(C)no3)CN(Cc3cc(C)c(C)o3)[C@]1([H])CCO2` | 30.13 |
| `O=C(NCC1CC[C@@]2(CNCCOC2)O1)c1cccnc1` (some centres not stated) | 8.778 |
| `c1ccc(-c2noc(CN3CCc4c(ncn4C4CC4)C3)n2)nc1` | 7.997 |
| `CN(C)[C@H]1CN(C(=O)c2ccc3sc4c(c3c2)CCNC4=O)C[C@@H]1O` | 15.96 |
| `Cc1ccc(-c2nc(CN3CCCC(C(=O)N(C)C)C3)cs2)o1` (configuration not stated) | -31.14 |
| `CCn1cnnc1CNC(=O)NCC(C)(CC)N1CCOCC1` (configuration not stated) | 1.059 |
| `COC(=O)[C@@H](NC(=O)c1coc(COc2cccc(F)c2F)n1)C(C)C` | 12.99 |
| `Cc1noc(C)c1CN1CCC2(CC1)NC(=O)CC2c1ccccc1.O=C(O)C(F)(F)F` (configuration not stated) | 16.53 |
| `CCn1cnnc1CNC(=O)NC(C)C(C)C` (configuration not stated) | 17.23 |
| `CCc1csc(CNc2cc(C)nc(-c3cccnc3)n2)n1` | 3.55 |
| `Cc1ccc(F)cc1-n1c(COC(C)C)n[nH]c1=O` | 3.392 |
| `CC(C)c1nc2c(n1C)CCN(CC(=O)NCc1ccccn1)C2` | -25.92 |
| `Cc1nccn1-c1cc(CNC(=O)c2ccccn2)ccn1` | 9.371 |
| `CC[C@@H](C)[C@H](NC(=O)CCn1cc(C(C)=O)c2ccccc21)C(=O)O` | 9.557 |
| `CCNC(=O)CN(CC)C(=O)Cc1csc(C(C)C)n1` | 0.9599 |
| `Cc1ccc(S(=O)(=O)N2CCN(CCCO)CC2)s1` | 19.31 |
| `CC(C)COC1CC2(CCN(C(=O)Cc3ccccn3)CC2)C1.O=C(O)C(F)(F)F` | 3.142 |
| `CC(=O)N1CCN(C(=O)CN2CCN(c3cccc(C)c3)CC2)CC1` | 20.61 |
| `COC(=O)N1CCC(Nc2ccc(Cl)c(C#N)n2)CC1` | 26.96 |
| `N#Cc1cccc(N2CCCC3(CNCCO3)C2)n1.O=C(O)C(F)(F)F.O=C(O)C(F)(F)F` (configuration not stated) | 32.1 |
| `COc1cccc(/C=C/CCN2CCC(C(=O)N3CCCC3)CC2)c1` | 9.134 |
| `CN(C)c1ncnc2c1CCN(Cc1nccs1)CC2.O=C(O)C(F)(F)F` | -2.428 |
| `CC(C)NC(=O)CNC(=O)C12CCC(=O)N1c1cc(Cl)ccc1S2` (configuration not stated) | 1.171 |
| `CCc1cnc(N)nc1NCCCn1cc(Cl)cn1` | 15.03 |
| `CN(C1CCCCC1)S(=O)(=O)NCC1Cc2ccccc2O1` (configuration not stated) | -3.973 |
| `O=C(CNc1cccc(CC(F)(F)F)c1)NCc1ccco1` | 2.854 |
| `O=C1CCN(C(=O)C2(c3ccc(F)cc3)CCCCC2)CCN1` | 32.17 |
| `Cc1ccc(N2CCCc3sc(C(=O)NCc4ccncc4)nc32)nn1` | -0.05923 |
| `CNC(=O)Cc1noc(-c2cc3c(s2)CCC(C)(C)C3)n1` | 27.75 |
| `Cn1cnc(CNC(=O)c2ccccc2-n2cc(CN)cn2)c1` | -10.19 |
| `Cc1ccc(OCCCC(=O)NC(C)c2ccc(S(N)(=O)=O)cc2)cc1` (configuration not stated) | 8.801 |
| `CN1CCN(c2ncnc3c2c(C(=O)NC2CC2)c2ccccn23)CC1` | -6.169 |
| `O=C(O)C(F)(F)F.O=C(O)C(F)(F)F.[H][C@@]12CCCO[C@]1([H])[C@H](N(C)C(C)C)CN(Cc1cc(C)on1)C2` | 3.012 |
| `CC1(C)CN(CC(=O)NCc2ccccc2F)C[C@]1(C)O` | 8.205 |
| `O=C(CN1CC(c2nc(C3CC3)no2)C1)NCC1CCCO1.O=C(O)C(=O)O` (configuration not stated) | -5.973 |
| `CCN(CCO)C(=O)C1CCC(=O)N(CCc2cccc(F)c2)C1` (configuration not stated) | 9.085 |
| `Cn1c(CCC(=O)N2CCCC3(CC2)CNC(=O)O3)nc2cccnc21` (configuration not stated) | -51.59 |
| `O=C(O)C(F)(F)F.O=c1cccnn1CC1CN(CC2CCCC2)Cc2nccn2C1` (configuration not stated) | 18.43 |
| `CC(C)c1nnc2n1CC(CNCc1ccncc1)CC2` (configuration not stated) | 6.262 |
| `CC1CCN(C(=O)c2cnc3cc(C(=O)N(C)C)n(C)c3c2)CC1` | -6.709 |

6 of the entries, repeated:

| compound | percent effect |
|---|---|
| `O=C(O)C(F)(F)F.O=C(O)C(F)(F)F.[H][C@]12CCN(c3ncc(F)cn3)[C@@]1([H])CC[C@@H](COCc1ccccn1)O2` | 30.47 |
| `CN1CCOC(C(=O)Nc2nc(-c3ccc(Cl)cc3)n[nH]2)C1` (configuration not stated) | -29 |
| `Cc1ccc(S(=O)(=O)N2CCN(CCCO)CC2)s1` | 19.31 |
| `CCn1cnnc1CNC(=O)NC(C)C(C)C` (configuration not stated) | 17.23 |
| `Cc1cc(F)cc(S(=O)(=O)NCCCN2CCC(O)CC2)c1` | -29.18 |
| `CN1CCN(c2ncnc3c2c(C(=O)NC2CC2)c2ccccn23)CC1` | -6.169 |